In patent publication US20100330094A1:
No constants are given. Whether binding was seen depends on the method and setting. Some entries that bind do so weakly or less than the wild type.

Assays:
[1] = target: NusA-cynomolgus IP-10 fusion protein (cynomolgus); assay: capture ELISA: NI-0801 coated, NusA fusion protein in a concentration range, anti-NusA detection (FIG. 7)
[2] = target: NusA-cynomolgus IP-10 fusion protein (cynomolgus); assay: capture ELISA: NI-0801 coated, concentration range of NusA fusion protein, revealed with anti-NusA antibody
[3] = target: NusA-cynomolgus IP-10 fusion protein (cynomolgus); assay: capture ELISA: NI-0801 coated, NusA fusion protein in a concentration range, anti-NusA detection

binding [1]: binds
binding [2]: binds
binding [3]: binds
B1: NI-0801, IgG1 format (antibody, V domains shown)
VH: QVQLVESGGGVVQPGRSLRLSCAASGFTFSNSGIHWVRQAPGKGLEWVAVISYDGSNKYYADSVKGRFTISRDNSKNTLYLQMNSLRAEDTAVYYCARLRDNAEYTDYWGQGTLVTVSS
VL: NFMLTQPHSVSESPGKTVTISCTGSGGSIASNYVQWYQQRPGSSPTTVIYEDNQRPSGVPDRFSGSIDSSSNSASLTISGLKTEDEADYYCQSYDPLPVWVFGGGTKLTVLG
